Test results reported in article PMC10520482.
Results are given in words; binding and its absence hold for the method and conditions named. In cells and extracts the contact can be indirect. For some of these results: Where a sequence is shown, tags or fusion partners need not be part of it.

By UniProt entry, the sequences of proteins in these tests, tags left out.
UniProt O43303: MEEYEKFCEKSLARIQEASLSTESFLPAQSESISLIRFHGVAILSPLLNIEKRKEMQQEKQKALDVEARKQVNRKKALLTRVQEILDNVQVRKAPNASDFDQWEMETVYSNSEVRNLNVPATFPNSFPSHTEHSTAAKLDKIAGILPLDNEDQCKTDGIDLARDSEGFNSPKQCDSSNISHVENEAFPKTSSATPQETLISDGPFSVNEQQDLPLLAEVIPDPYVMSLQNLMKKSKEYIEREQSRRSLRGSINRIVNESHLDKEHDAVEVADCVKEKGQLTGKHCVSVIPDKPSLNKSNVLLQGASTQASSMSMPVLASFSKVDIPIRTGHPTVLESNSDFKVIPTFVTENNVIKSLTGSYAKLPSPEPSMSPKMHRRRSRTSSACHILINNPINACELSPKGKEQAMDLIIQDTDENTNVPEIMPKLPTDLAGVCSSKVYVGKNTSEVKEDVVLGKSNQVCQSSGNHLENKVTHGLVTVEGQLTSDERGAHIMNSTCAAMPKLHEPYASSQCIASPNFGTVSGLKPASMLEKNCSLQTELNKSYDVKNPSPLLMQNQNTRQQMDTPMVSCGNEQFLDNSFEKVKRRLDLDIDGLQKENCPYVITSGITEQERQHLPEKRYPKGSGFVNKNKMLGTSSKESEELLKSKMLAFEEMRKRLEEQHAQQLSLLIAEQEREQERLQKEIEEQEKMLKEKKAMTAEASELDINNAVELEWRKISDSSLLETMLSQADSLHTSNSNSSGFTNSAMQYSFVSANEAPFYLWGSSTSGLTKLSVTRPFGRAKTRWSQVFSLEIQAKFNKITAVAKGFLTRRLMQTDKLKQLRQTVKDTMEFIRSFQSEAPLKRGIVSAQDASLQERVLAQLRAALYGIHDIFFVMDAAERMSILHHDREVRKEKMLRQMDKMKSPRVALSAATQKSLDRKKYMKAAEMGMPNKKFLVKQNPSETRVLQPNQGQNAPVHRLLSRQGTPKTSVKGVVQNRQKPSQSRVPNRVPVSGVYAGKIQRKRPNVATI
UniProt Q15691: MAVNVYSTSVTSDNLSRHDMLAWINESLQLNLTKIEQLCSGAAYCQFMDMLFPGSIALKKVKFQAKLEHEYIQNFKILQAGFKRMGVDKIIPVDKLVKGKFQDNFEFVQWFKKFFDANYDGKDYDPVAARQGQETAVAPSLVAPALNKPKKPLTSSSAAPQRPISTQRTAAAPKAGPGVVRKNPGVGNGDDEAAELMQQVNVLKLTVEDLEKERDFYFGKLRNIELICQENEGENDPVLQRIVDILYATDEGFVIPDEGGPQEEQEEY
UniProt Q8IY31: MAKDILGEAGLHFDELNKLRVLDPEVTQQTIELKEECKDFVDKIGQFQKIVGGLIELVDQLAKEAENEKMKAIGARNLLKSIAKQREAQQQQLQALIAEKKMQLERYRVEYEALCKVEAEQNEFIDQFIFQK
UniProt P33993: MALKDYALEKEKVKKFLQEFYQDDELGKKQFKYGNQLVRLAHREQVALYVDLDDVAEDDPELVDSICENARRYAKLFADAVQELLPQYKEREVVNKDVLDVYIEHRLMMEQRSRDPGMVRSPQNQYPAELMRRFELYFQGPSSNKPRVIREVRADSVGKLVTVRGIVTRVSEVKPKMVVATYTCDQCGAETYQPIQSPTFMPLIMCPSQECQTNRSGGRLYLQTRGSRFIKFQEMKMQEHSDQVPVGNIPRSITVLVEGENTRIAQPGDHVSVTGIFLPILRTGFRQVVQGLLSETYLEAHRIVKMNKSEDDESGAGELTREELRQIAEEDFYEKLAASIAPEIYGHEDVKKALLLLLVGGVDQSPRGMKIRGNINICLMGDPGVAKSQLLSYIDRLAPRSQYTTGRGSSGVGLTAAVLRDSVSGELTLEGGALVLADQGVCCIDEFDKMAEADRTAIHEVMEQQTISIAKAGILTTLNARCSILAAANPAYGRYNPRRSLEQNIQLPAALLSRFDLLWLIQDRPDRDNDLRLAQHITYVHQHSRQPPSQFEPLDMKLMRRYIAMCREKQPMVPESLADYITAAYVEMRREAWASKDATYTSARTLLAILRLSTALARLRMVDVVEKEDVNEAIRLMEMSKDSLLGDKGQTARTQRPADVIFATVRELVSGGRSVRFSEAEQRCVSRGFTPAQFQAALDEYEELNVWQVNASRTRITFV
UniProt P61006: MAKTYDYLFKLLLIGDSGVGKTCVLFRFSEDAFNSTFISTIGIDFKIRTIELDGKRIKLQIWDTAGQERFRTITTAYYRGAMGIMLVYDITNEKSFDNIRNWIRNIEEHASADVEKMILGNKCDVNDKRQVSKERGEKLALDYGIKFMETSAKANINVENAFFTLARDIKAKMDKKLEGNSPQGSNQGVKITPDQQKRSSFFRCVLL

Tests used:
Test in all cases: co-IP; HEK293T co-transfected with MYC-CENTLEIN and a GFP-tagged plasmid for 48 h; anti-GFP immunoprecipitation, blot with anti-MYC and anti-GFP; ELB buffer (50 mM HEPES pH 7.4, 250 mM NaCl, 0.1% NP-40), 4°C
[1] = biological target: T1, GFP-CCDC11 (UniProt Q96M91)
T1 sequence: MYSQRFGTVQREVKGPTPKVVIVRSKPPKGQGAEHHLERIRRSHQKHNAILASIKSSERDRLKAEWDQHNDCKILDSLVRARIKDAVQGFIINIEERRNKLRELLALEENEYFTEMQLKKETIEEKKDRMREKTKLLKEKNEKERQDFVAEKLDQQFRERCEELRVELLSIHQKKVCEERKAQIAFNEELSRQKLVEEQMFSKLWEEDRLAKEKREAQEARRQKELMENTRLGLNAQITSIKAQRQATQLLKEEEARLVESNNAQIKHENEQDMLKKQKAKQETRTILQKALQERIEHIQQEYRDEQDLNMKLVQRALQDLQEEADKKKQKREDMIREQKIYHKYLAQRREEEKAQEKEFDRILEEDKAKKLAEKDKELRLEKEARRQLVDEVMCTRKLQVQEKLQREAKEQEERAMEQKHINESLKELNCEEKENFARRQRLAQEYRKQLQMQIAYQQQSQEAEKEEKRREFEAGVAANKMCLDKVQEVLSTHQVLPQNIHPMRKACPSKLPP

[2] = biological target: GFP-CP110 (human (from HeLa cDNA)) (UniProt O43303)
[3] = biological target: T2, GFP-DNM2 (human (from HeLa cDNA)) (UniProt P50570)
T2 sequence: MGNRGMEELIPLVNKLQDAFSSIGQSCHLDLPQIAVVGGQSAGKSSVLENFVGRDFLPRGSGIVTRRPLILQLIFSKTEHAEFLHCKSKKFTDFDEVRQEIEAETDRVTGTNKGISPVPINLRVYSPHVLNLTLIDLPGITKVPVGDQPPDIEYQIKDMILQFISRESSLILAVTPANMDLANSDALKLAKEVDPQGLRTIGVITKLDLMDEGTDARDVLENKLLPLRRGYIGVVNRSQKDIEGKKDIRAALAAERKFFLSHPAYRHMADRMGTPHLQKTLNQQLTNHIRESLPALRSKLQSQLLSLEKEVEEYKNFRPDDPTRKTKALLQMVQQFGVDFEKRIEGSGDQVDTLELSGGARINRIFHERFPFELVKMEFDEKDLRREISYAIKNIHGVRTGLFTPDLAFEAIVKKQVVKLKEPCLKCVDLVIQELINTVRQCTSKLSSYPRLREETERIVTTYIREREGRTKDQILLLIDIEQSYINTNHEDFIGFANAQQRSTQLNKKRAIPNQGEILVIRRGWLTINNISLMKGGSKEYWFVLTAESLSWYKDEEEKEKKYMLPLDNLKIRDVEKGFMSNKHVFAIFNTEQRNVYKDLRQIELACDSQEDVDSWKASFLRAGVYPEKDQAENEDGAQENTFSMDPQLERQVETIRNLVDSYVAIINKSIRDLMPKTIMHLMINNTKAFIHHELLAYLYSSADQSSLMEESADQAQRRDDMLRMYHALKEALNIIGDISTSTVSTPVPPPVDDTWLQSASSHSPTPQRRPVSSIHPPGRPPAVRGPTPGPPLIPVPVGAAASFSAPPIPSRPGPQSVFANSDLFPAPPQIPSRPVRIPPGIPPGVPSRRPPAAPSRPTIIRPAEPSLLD

[4] = biological target: GFP-EB1 (human (from HeLa cDNA)) (UniProt Q15691)
[5] = biological target: GFP-IFT20 (human (from HeLa cDNA)) (UniProt Q8IY31)
[6] = biological target: GFP-MCM7 (human (from HeLa cDNA)) (UniProt P33993)
[7] = biological target: GFP-RAB8A (UniProt P61006)

Measured: binding

MYC-CENTLEIN (from UniProt Q9NXG0-2)
no binding: [1] | [2] | [3] | [4] | [5] | [6] | [7]
